The target in experiment [1] is T1, AtGIP1 (GCP3-Interacting Protein 1), full length, yeast two-hybrid fusion (Arabidopsis thaliana) (UniProt Q9M0N8).
T1 sequence: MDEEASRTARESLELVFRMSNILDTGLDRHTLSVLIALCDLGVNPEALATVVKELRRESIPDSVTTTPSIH
The experiment in a line: two-hybrid; AH109 cells co-transformed with bait (Gal4 BD) and prey (Gal4 AD) plasmids, growth on -HLW + 3-AT, 2 days at 30°C.

The target in experiment [2] is T2, AtGIP2, full length, yeast two-hybrid fusion (Arabidopsis thaliana) (UniProt Q9C9T3).
T2 sequence: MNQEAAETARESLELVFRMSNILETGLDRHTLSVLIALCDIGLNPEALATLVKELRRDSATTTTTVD
The description is as above.

For experiment [3], the target named is T1, AtGIP1 (GCP3-Interacting Protein 1), full length, yeast two-hybrid fusion (Arabidopsis thaliana). The experiment in a line: two-hybrid; AH109 cells co-transformed with BD bait and AD prey, spotted directly and after ten-fold serial dilutions, growth on high-stringency (-AHTL) medium, 2 days at 30°C.
For experiment [4], the target named is T2, AtGIP2, full length, yeast two-hybrid fusion (Arabidopsis thaliana). The experiment is described as above.
The target in experiment [5] is T1, AtGIP1 (GCP3-Interacting Protein 1), full length, yeast two-hybrid fusion (Arabidopsis thaliana). The experiment in a line: two-hybrid; screen of an A. thaliana cDNA library (Clontech) with BD-AtGIP1 bait (pAS2ΔΔ) in yeast CG1945; selection on medium lacking histidine, tryptophan and leucine with 20 mM 3-AT; clones positive for β-galactosidase activity.

Results are given in words; binding and its absence hold for the method and conditions named. A result given as binding can be weak or reduced; the word gives no strength. Sequences can lack the tags named with a protein.

Experimental findings from publication PMC3842039 are described below.

On to “AtTSA1 C-terminal domain D1 (273 to 755) (Arabidopsis thaliana) (domain or fragment)”, for which the binding result in experiment [1] is reported as “binds”; in experiment [2], “binds”; in experiment [3], “binds”; in experiment [4], “no binding (only under high stringent conditions)”; in experiment [5] it was “binds”.
Regarding “AtTSA1 C-terminal domain D2 (326 to 755) (Arabidopsis thaliana) (domain or fragment)”, the binding entry in experiment [1] and in experiment [5] was “binds” in each case.
For “AtTSA1 C-terminal domain D3 (405 to 755) (Arabidopsis thaliana) (domain or fragment)”, the binding entry in experiment [1] and in experiment [5] was “binds” throughout.
Regarding “AtTSA1 C-terminal domain D4 (633 to 755) (Arabidopsis thaliana) (domain or fragment)”, the binding result in experiment [1], in experiment [2], in experiment [3], in experiment [4] and in experiment [5] was “binds” throughout.
